Values quoted from earlier work as cited in patent US9061040B2, “Combination therapy for breast cancer” (priority 2011, dated 2015).
For at least one compound, name, drawing or mass did not settle the structure.

Tested on: acute promyelocytic leukemia (APL)
Settings: patients with APL

In the case of `CC1=C(/C=C/C(C)=C/C=C/C(C)=C/C(=O)O)C(C)(C)CCC1` [RA, retinoic acid], the complete remission rate is listed as “about 90%”.
